Screening data, single-dose tests

From ChEMBL document CHEMBL3988442, “University of Dundee, Small-Polar-MMV Screening Library” (2021).

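Growth of Mycobacterium tuberculosis over 4 days (cholesterol / DPPC medium with tyloxapol); the read-out is not stated. Compounds at 50 µM. Direction is inferred from retests: higher values go with more growth inhibition. About 69,000 compounds were tested under these conditions; 0.54% (about 370) showed 50% or more at least once.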

Results are given as percent effect.
The record does not define 0% and 100%; most values in the screen are far below 50% and negative numbers occur (in some assays of this library far below -100).
This is an unselected part of the compounds tested.
Two or more numbers in one place are separate tests of the same structure; such repeats can differ widely.

Cc1ccc(C2(CN3CCN(Cc4cncn4C)CC3)CC2)cc1.Cl read -30.41%. CNc1cncc(C2CCCN2Cc2c[nH]cn2)n1 (stereo unspecified) read -12.45%. Cc1cc(C)c(CNC(=O)NCCNc2ncccn2)c(=O)[nH]1 read -14.91%. For Cc1ncsc1C(=O)NCC1SCCc2ccccc21 (stereo unspecified) the result was -10.24%. CC(C)(C(=O)N1CCCC(OCc2cccnc2)C1)n1cccc1 (stereo unspecified) read -7.551%. Result for O=C(c1ccc2c(c1)CCC2)N1CC[C@H](O)[C@]2(CCCO2)C1 was -13.1%. Result for CN1C(=O)CCN(C(=O)C2CC=CC2)c2ccccc21 was 10.03%. For Cc1ccc(C(C(=O)NCc2n[nH]c(N)n2)N(C)C)cc1 (stereo unspecified) the result was -11.07%.

For Cn1nccc1-c1nnn2c1COCC(CNC1CCOCC1)C2.O=C(O)C(F)(F)F.O=C(O)C(F)(F)F (stereo unspecified) the result was 1.118%. For COC(=O)CNC(=O)c1cn(-c2ccccn2)c(=O)c2ccccc12 the result was -13.64%. Result for CC(=O)N1CCCCC1c1cc(CO)[nH]n1 (stereo unspecified) was -23.26%. CN(C)S(=O)(=O)NC1CC(=O)N(c2ccccc2Cl)C1 (stereo unspecified) read 0.1565%. With CN1CC(=O)N(c2cccc(F)c2)CC12CCN(Cc1cnn(C)c1)C2.O=C(O)C(F)(F)F.O=C(O)C(F)(F)F (stereo unspecified) the screen gave -18.94%. With CCCS(=O)(=O)N1CCCC1c1cccc(N(C)C)c1 (stereo unspecified) the screen gave -5.004%. CC(C)NC(=O)NCc1nnc2n1C(C(=O)N(C)C)CC2 (stereo unspecified) gave 2.562%. With Cc1cc(C2CCCN(S(=O)(=O)c3cn(C)cn3)C2)ccn1 (stereo unspecified) the screen gave 16.2%.

COCc1cc(NCCc2ccc(F)cc2)n2nccc2n1 gave 11.44%. CC(=O)N1CCCC(C(=O)c2cnn(-c3ccc(F)cc3)c2N)C1 (stereo unspecified) gave 1.659% & 0.5237%. Cc1c(CN2CCc3nc4sccc4c(=O)n3CC2)cnn1C.Cl gave 14.03% & 5.373%. With Cc1nn2cc(CCNC(=O)c3cc(C(C)C)no3)nc2s1 the screen gave -2.22%. Result for COCCn1cnnc1C(C)NC(=O)c1[nH]c2c(C)cc(C)cc2c1C (stereo unspecified) was -46.92%. With c1csc(CN(Cc2ccsc2)CC2CCCO2)n1 (stereo unspecified) the screen gave 2.931%. CCN(C(=O)CN1CCn2c(nnc2C2CC2)C1)C1=CCCCC1 gave -8.305%. Result for Cc1ccc(CN2CC(C(=O)N3CCCC3)C3(CCOCC3)C2)s1.O=C(O)C(F)(F)F (stereo unspecified) was 11.59%.

Cc1cc(NCC2CCS(=O)(=O)C2)n2nc(C)cc2n1 (stereo unspecified) read 101.1%. O=C(Cc1ccc(-c2ccccc2)cc1)N1CCOCC(O)C1 (stereo unspecified) gave -21.61%. Result for Cc1cccc(N2CCN(C(=O)Cc3ccccc3O)C(C)C2)n1 (stereo unspecified) was -2.037%. With CCc1nc(CN(C)C(=O)CSC)no1 the screen gave 1.576%. Result for Cc1cc(Br)c2c(c1)C1(CC(=O)Nc3c1cnn3C(C)C)C(=O)N2 (stereo unspecified) was 3.987%. With CCC(=O)N1CCCC(c2nc(-c3cccnn3)no2)C1 (stereo unspecified) the screen gave 0.5978%. For Cn1ncc2c1NC(=O)CC2c1cc2c(cc1Cl)OCO2 (stereo unspecified) the result was 6.284%. With Cc1cccc(C(=O)N2CCN(c3ccccc3F)CC2)n1 the screen gave -6.456% & -0.9249%.

For O=S(=O)(Cc1c(F)cccc1Cl)Cc1nnnn1C1CC1 the result was 2.516%. With Cc1cc(-c2ccc(=O)n(CCNC(=O)C3CCCCC3)n2)c(C)o1 the screen gave -2.804% & -5.924%. With Cl.O=C(Nc1ccccn1)c1cncc(C2CCNCC2)n1 the screen gave 0.5464%. With CNc1cc(C2CCCN2S(=O)(=O)c2cccc(F)c2)ccn1 (stereo unspecified) the screen gave -44.44%. For [H][C@]12CN(C)CCN1C(=O)N(c1ccccc1)C2 the result was -2.944%. Result for CCCn1ccnc1CN1CCN(C2CCOCC2)CC(C(N)=O)C1 (stereo unspecified) was -16.88%. For CN(C)c1cc(C(F)(F)F)cc(-c2ccc(C(=O)O)cc2)n1 the result was -3.117%. Result for Cc1ccc(OCCNc2cccc(C(=O)N3CCOCC3)c2)cc1 was -12.4%.

Result for Cc1ccc(C(=O)N2CCN(C(=O)Cc3ccccn3)CC2)c(C)c1 was -20.64%. Cc1cc(O)c(OCC(=O)Nc2nc3c(s2)CCCC3)cn1 read -9.067%. With O=C(O)CNc1cc(-c2nccnc2N2CCCC2)c2cc[nH]c2n1 the screen gave -9.773% & -19.77%. With Cc1nn(C)c2nc(N(C)CCN(C)C3CCCC3)sc12 the screen gave 23.93%. OCc1ccc(CN2CCC(n3cc(C4CCCCC4)nn3)CC2)o1 read -0.3377%. Cc1ccn(CCC(=O)N2CCCC(Cc3cccnc3)C2)n1 (stereo unspecified) read 1.217%. CNc1nccc(C2CCCCN2Cc2cnn3cccnc23)n1 (stereo unspecified) read 5.211%. Cc1nc(CCN(C)C(=O)CN2C(=O)OC[C@@H]2c2ccccc2)no1 gave -5.342%.

CCOCc1nc2c(c(N(C)Cc3ccsc3)n1)CCNCC2 gave -0.1826%. With CN(C)C[C@H]1C[C@H](CO)CN(C(=O)c2cc(S(N)(=O)=O)ccc2F)C1 the screen gave 5.11%. CCCNC(=O)CNC(=O)CCc1ccccc1Br read -3.241%. CCOc1ccc(CCCC(=O)N2CCC(c3nnn[nH]3)CC2)cc1C read -0.3554%. CSCC[C@@H](CO)n1ccnc1-c1nccn1C read 2.863%. O=C(c1ccccn1)N1CCc2nc(-c3cnccn3)nc(O)c2C1 gave -30.92%. For CCN1C(=O)C2(CCOCC2)c2cc(NC(=O)COC)ccc21 the result was -10.07%. COc1ccc(C(=O)NS(=O)(=O)c2ccc(C#N)cc2C(F)(F)F)cc1 gave -7.934%.

With Cc1cc(N2CCC(C(=O)NC3CC3)CC2)nc(-c2ccncc2)n1 the screen gave 1.024%. COc1cc(Cl)c(C)cc1-n1nnc(C(=O)O)c1-c1ccncc1 gave -13.89%. Result for CC(Cn1cccn1)NC(=O)CCC(=O)c1cccs1 (stereo unspecified) was -14.98%. Result for COCCN1CCC(NCc2c(C)nn(C)c2N(C)C)CC1 was -18.7%.

For reference, 5 entries once more:

structure	effect
Cc1ccc(C(C(=O)NCc2n[nH]c(N)n2)N(C)C)cc1 (stereo unspecified)	-11.07%
CCCn1ccnc1CN1CCN(C2CCOCC2)CC(C(N)=O)C1 (stereo unspecified)	-16.88%
Cc1cc(O)c(OCC(=O)Nc2nc3c(s2)CCCC3)cn1	-9.067%
COCCN1CCC(NCc2c(C)nn(C)c2N(C)C)CC1	-18.7%
CC(C)NC(=O)NCc1nnc2n1C(C(=O)N(C)C)CC2 (stereo unspecified)	2.562%